This assay deals with T1, TBC1D21 (mouse (endogenous in sperm)) (UniProt Q9D9D3).
T1 sequence: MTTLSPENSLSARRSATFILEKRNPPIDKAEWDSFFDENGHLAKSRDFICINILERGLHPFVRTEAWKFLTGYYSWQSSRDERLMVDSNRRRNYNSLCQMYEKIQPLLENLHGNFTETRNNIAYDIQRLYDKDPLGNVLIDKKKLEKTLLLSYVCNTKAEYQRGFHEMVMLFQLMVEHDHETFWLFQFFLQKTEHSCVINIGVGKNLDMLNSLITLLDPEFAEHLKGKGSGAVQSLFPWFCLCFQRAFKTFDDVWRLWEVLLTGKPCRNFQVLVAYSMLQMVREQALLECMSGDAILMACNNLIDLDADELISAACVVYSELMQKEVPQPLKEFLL
Nature of the assay: proximity ligation; Duolink PLA on purified wild-type murine sperm fixed on slides; anti-TBC1D21 with anti-TOMM20 or anti-DNAH7 antibodies, 12 hours at 4°C; probes less than 40 nm apart give a signal; midpiece stained with Mito-tracker.

We go through one substance from PMC7549768.

These are yes or no findings as the source states them, for the method shown. Binding seen in cells or lysates may run through a third protein. Binding can be weak; no strength is given.

“Dynein Heavy chain 7 (DNAH7) (mouse (endogenous in sperm))”: the binding entry is “binds”.
